According to PubChem BioAssay AID1347423 (Functional Genomics Laboratory (NCATS/FGL), 2020):
Screen size: about 52,000 sequences; about 210 (0.4%) were called active.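 The calls were made as follows: active = gene whose silencing raises cell survival under the drug, median off-target-corrected z-score across its silencing RNAs 2 or more; inactive = the rest.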 The list shows a part of the results.

Assay: Resistance to Poly (ADP-Ribose) Polymerase inhibitor: Gene Identification via Genome-wide siRNA Screen
Details: mouse BRCA2 R2336H ES cells, olaparib, CellTiter-Glo viability; active compounds read high
Outline: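 Genome-wide siRNA screen (3 siRNAs/gene, 20 nM) in mouse ES cells carrying hypomorphic BRCA2 R2336H; olaparib 500 nM added 48 h post-transfection, CellTiter-Glo viability 72 h later. Normalized to plate-median negative control; MAD z-scores, gene median, seed-adjusted.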

Sequence | z-score
AGAAGAGUUACCACUAUGUTT against D14Ertd668e | inactive: -0.147
GGCUCGCCUGAGAAAGUCUTT against Nudt7 | inactive: -0.88
GGACCAGCACCAUUUCCUATT against Tce4 | inactive: -0.603
GGAUGAUGACAUCUUCAACTT against B4galt2 | inactive: -0.101
CCAAUUCCUGGGUGCACACTT against Olfr309 | inactive: 1.26
GGCACCAGAUGUUUGUAGCTT against BC055107 | inactive: 1.78
CCUAAUAAGCUUUAAAGGATT against A530065E19Rik | inactive: 0.307
CCUACUAAAGGUGAUCUGATT against BB128963 | inactive: -0.194
GCUGAUUUCAUUGCAUCCGTT against Olfr483 | inactive: 2.01
GCCGAAGUGUUCUACGAUGTT against BC024814 | inactive: 0.331
CGUGUACUCUUCUUGUACATT against Ranbp17 | inactive: 0.202
GGUGUAUAUCAACAUCAGUTT against Pps | inactive: 0.593
GCUUAAGUUAUGGAUAGCATT against Pex11b | inactive: -1.1
GGAAUACUCCAGUAUCUCCTT against 9130401M01Rik | inactive: -0.0555
GGUGACUUUGAAAAAGCCATT against AW049829 | inactive: 0.573
GCUCAUGCAGAAAUGUUUUTT against BC021438 | inactive: -0.896
GGUUCAUCUGAAAACAGGUTT against Osgepl1 | inactive: -0.509
CCAAUAGUUGUGGACAUGATT against Crisp1 | inactive: 0.606
CCUUGAAUCAAUUGAUAGUTT against Lyplal1 | inactive: -0.191
GGAAGAGUUAGCUUAGUAUTT against Ypel1 | inactive: -0.111
GGACAAGGAUAGUAGUAAGTT against Adprt1 | active: 3.83
GGAAAGGACAAAAGAAAGATT against Irx3 | inactive: -0.688
GCAGUUUGACAACUUAAACTT against Mtus1 | inactive: 0.96

Sequence | z-score
GCCUUUAGUUGGUUUAGUATT against 6030490I01Rik | inactive: 2.86
GGAAACACAGCAAUAGAUUTT against Cplx1 | inactive: 0.751
GCCUCCUACUGGUUCCAAATT against Commd7 | inactive: -1.22
GGCAGAUCAGAAUUGAAUUTT against Fgd6 | inactive: -0.0476
GGAAAACAAGACUUCAAUCTT against Gypa | inactive: -0.216
GCAGGCAACUCGAAUGAGATT against 2610024A01Rik | inactive: -1.77
GGAGUUGAUAAUAUGGUGGTT against Uck1 | inactive: 0.421
GGAGCAAGAGUCUAAAUGATT against 1700021K19Rik | inactive: -0.974
GCCUAACAUUAACAUGUAATT against 1500001A10Rik | inactive: 0.2
GGCCAGUGUGUGGUCUAAGTT against Cd1d2 | inactive: -0.9
GGAAAGGAUAUUAUUGUUCTT against Olfr907 | inactive: 0.474
CCGAAAGAACACAAUCUAUTT against Ifi16 | inactive: -0.1
GGCUAUGAUGACUUCAACUTT against Gnb3 | inactive: 1.38
GUUUUGUUUUUCCUCCAGUTT against Bcl9l | inactive: 0.044
CCAUAAAUCAGCUAAAGCATT against Eea1 | inactive: -0.74
GGGCAAUUCUAUCAAAGAGTT against Gps1 | inactive: -1.54
GCUGUGUUCAUCCAAAUACTT against Orc5l | inactive: -0.819
GACGGUACAUCUGCUCAUCTT against Galr3 | inactive: 0.874
GGAAUAAAAGACCUUGGAUTT against Slc39a7 | inactive: -1.5
GGUUCUGCUCCAACCUUUGTT against Gtf2b | inactive: -2.86
CGAUGGUAGAAUUCUUAGATT against Akap9 | inactive: 0.433
GCGGAAUUUGAUCACAUCCTT against C330005M16Rik | inactive: 0.612
CCUACACAUAUGAAGGAGUTT against Fabp2 | inactive: 0.284

Sequence | z-score
GGAAGCGAACGAGACACUUTT against Pla2g4a | inactive: 0.943
GGAUGUAAUCCACUUCAAGTT against Acox3 | inactive: 1.68
GGGACCCAAGGAUAUGAAUTT against Zfyve20 | inactive: 0.725
GGAUCUUUGGAGAAAGAGATT against Kcnc3 | inactive: 0.346
GGAUGUCUUACCAUGGGAATT against A830053O21Rik | inactive: -0.789
GCCGAAGCCCUAUUUAUUATT against Artn | inactive: -0.365
GGAGACCAAAUAGCAUUUUTT against Olfr504 | inactive: -0.822
GCCCUGGAUCAUUGAGUGATT against Atp2b1 | inactive: -0.326
CGAGAAAUAUAUGAAUGUCTT against Eltd1 | inactive: -2.1
GGAGGUCCAAGAGAAAUGUTT against 4933428I03Rik | inactive: 1.97
GGAAAAUUCUGAGUUAAAGTT against 4932414K18Rik | inactive: 0.105
GCCCUAUACCUUAUUUAAUTT against Ros1 | inactive: 0.113
GGAGUCAGUACUUCAAGAUTT against Zfp148 | inactive: 0.731
CCCUACACGCAGGAGUUUUTT against Gtf3c1 | inactive: 0.626
GCUUGUCUACAAAUACUCUTT against Zcwcc1 | inactive: -0.588
GGAUGUCUAUAGUGAGAUUTT against Psg16 | inactive: -0.802
GGAGAGACUGACAAAAACCTT against Mrvi1 | inactive: -0.257
GCAAGACUCUACACAUCACTT against Nox4 | inactive: 0.804
GGUACCUGUUAAAUGUUACTT against 2700007P21Rik | inactive: 0.472
GCCUAUAUGGAACACUGGGTT against Mrps6 | inactive: 0.532
GGGAUUUCUGGUUUACUUCTT against BC024322 | inactive: 0.441

Taken from above:
CGAGAAAUAUAUGAAUGUCTT against Eltd1 – z-score: inactive: -2.1
GGAGAGACUGACAAAAACCTT against Mrvi1 – z-score: inactive: -0.257
GGAAGCGAACGAGACACUUTT against Pla2g4a – z-score: inactive: 0.943
GCCCUGGAUCAUUGAGUGATT against Atp2b1 – z-score: inactive: -0.326
CCCUACACGCAGGAGUUUUTT against Gtf3c1 – z-score: inactive: 0.626
